Drawing on PMC11822377, this text covers binding for four molecules.

Sequences of proteins named here, by UniProt entry; tags and fusion partners are left off. A change or cut given only in a name is not applied to a line headed by its entry.
UniProt Q23096: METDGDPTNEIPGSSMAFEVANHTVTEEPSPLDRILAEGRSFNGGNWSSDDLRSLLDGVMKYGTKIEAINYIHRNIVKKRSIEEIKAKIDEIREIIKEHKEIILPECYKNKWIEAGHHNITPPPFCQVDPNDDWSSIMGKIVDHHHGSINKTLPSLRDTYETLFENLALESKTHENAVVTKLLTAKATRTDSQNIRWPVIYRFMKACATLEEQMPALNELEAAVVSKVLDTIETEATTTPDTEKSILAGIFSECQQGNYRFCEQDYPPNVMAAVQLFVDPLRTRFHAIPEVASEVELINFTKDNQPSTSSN
UniProt A0A0K3AR81: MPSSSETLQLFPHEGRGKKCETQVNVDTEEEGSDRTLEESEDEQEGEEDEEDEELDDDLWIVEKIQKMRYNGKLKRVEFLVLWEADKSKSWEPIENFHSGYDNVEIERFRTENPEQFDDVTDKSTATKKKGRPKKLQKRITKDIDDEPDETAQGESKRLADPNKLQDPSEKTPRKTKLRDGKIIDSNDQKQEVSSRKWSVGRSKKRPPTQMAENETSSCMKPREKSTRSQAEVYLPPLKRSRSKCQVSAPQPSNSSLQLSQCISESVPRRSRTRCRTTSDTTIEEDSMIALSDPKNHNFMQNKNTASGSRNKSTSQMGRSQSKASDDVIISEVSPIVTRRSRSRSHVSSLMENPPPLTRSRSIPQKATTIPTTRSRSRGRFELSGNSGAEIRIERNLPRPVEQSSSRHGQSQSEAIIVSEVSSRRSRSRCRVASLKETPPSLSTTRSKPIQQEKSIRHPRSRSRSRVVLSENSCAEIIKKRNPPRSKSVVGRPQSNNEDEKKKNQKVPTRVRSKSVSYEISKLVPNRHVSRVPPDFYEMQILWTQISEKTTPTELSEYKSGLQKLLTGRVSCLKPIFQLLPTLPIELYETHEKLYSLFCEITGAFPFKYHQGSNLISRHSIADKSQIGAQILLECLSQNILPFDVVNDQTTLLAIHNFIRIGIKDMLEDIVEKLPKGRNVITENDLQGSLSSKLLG

Results are given in words; binding and its absence hold for the method and conditions named. In cells and extracts the contact can be indirect. These calls come from enrichment with a bait or labelling near it, and not all partners need be listed. Tags and fused reporters may be left off the sequences shown.

The target of the assay is T1, TurboID::PRDE-1 (C. elegans) (UniProt O17828).
T1 sequence: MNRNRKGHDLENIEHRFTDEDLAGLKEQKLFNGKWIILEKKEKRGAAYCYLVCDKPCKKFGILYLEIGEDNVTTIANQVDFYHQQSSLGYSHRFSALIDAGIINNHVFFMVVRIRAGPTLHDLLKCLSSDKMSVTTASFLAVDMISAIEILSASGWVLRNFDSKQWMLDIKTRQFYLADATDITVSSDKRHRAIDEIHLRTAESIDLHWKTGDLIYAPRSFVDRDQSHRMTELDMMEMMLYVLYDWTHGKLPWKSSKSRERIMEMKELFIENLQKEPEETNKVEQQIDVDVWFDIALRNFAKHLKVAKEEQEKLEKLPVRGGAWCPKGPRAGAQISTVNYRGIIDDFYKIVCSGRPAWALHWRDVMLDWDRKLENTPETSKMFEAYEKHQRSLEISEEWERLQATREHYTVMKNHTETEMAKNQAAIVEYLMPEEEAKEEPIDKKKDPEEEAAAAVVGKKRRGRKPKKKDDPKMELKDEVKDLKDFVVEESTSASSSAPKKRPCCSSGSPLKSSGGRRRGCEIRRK
The experiment in a line: proximity labelling; TurboID::PRDE-1 biotinylates nearby proteins in vivo in adult C. elegans (20°C); lysate in RIPA buffer, streptavidin magnetic beads overnight at 4°C, stringent washes (1 M KCl, 0.1 M Na2CO3, 2 M urea), on-bead trypsin digestion, mass spectrometry; compared with untagged N2.

Regarding “TOFU-4 (C. elegans (endogenous in adult animals))”, the binding result is recorded as “binds”.

Take TOFU-5 (from UniProt Q23096): the binding result was “binds”.

Consider “chromodomain protein UAD-2 (from UniProt A0A0K3AR81 1-696)”, for which the binding entry is given as “binds”.

B1: TAG-72 (protein, UniProt Q9XVS1 1-380)
chain: MSSSEVASHYNKVLQVGIEGRKESRIFFMRNMNNWVKSQLINDAKQRVNDNGVNNPRVLDLACGKGGDLKKWDIAGAKDVVMADVADVSIQQAEERYKQMFGYKKNNIFTVQFIVADCTKENLEDRIENKDPFDLVSCQFALHYSFVDEASARIFLKNAVGMLKPGGVFIGTLPDADRIVWSMRNGENGQFANEVCKITYENVEELAEGKVPLFGAKFHFSLDEQVNCPEFLAYFPLVKHLLEELDMELLFVHNFAEAINKWLEPGRRLLESMTGLETYPNEKLSGKSDDEYLEAKAKLDAFPEDERIKTMGTLSKSEWEAICMYLVFGFRKKKSEAEKTEEEPATTKPVAESESEQKEVTESEEKEDQEDCEHQEAQTN
With B1, the binding result is on record as “binds”.
